Measurements reported in PubChem BioAssay AID652272 (Drosophila RNAi Screening Center, 2013).

- Aim: 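Genome-wide knock-down search for components of Hedgehog signalling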 (primary screen)
- System: Drosophila clone 8 (Cl8) cells
- Reagents: long dsRNA against Drosophila genes
- Measurement: 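Plate reader light from a firefly reporter under a ptc promoter fragment that responds to Hedgehog, with Renilla light as transfection reference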
- Reading the numbers: firefly Hh reporter signal: higher = more ptc reporter light; Renilla reference signal: higher = more Renilla control light
- Hit rule: 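Hit when the z-score averaged over two replicates is under -2 or over +3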
- Calls: active = hit: reporter lowered or raised; inactive = not a hit
In all, the deposit lists about 21,000 reagents; this is a random part of those with a known target gene and a result. Of all reagents, 503 (2.4%) were called active. 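Raw plate light values, not normalised; calls rest on replicate z-scores that were not deposited; hits include reporter decreases as well as increases.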 The numbers tell different reagents against one gene apart. Names joined by + are all predicted targets of the reagent. Not stated in the record: the amount of reagent, the time to read-out.

predicted target | reagent no. | firefly Hh reporter signal, replicate 1 | firefly Hh reporter signal, replicate 2 | firefly Hh reporter signal, replicate 3 | Renilla reference signal, replicate 1 | Renilla reference signal, replicate 2 | activity call
PPP1R15 (GeneID 37820) | 1 | 64413 | 66278 | – | 2477 | 2497 | inactive
Ctf4 (GeneID 36551) | 1 | 1.07e5 | 64507 | – | 4800 | 2774 | inactive
Phb2 (GeneID 46038) | 1 | 4.85e5 | 73145 | – | 3180 | 3180 | inactive
Dgkepsilon (GeneID 36408) | 1 | 72503 | 63800 | – | 3270 | 2448 | inactive
UGP + PGRP-LF | 1 | 26006 | 59408 | 72119 | 3994 | 5536 | inactive
CG31735 (GeneID 318922) | 1 | 82113 | 1.81e5 | – | 2241 | 7988 | inactive
Cpr66Cb (GeneID 38940) | 1 | 60651 | 65466 | – | 6740 | 4113 | inactive
BHD (GeneID 38793) | 1 | 1.51e5 | 1.30e5 | – | 6544 | 5037 | inactive
rept (GeneID 40092) | 1 | 1.10e5 | 1.46e5 | – | 2626 | 2468 | active
CG11322 (GeneID 33949) | 1 | 1.68e5 | 79826 | – | 4167 | 8176 | inactive
CG10969 (GeneID 39451) | 1 | 33040 | 39316 | 59645 | 5168 | 4022 | inactive
Rac1 (GeneID 38146) | 1 | 63875 | 36277 | – | 2467 | 3248 | inactive
Zasp66 (GeneID 38988) | 1 | 83477 | 1.79e5 | – | 2440 | 7720 | inactive
Zasp66 (GeneID 38988) | 2 | 1.12e5 | 81185 | – | 4457 | 3364 | inactive
Zasp66 (GeneID 38988) | 3 | 58700 | 64198 | – | 5741 | 4788 | inactive
CG8087 (GeneID 41764) | 1 | 1.12e5 | 1.27e5 | – | 4884 | 3293 | inactive
CG31206 (GeneID 318627) | 1 | 57545 | 2.31e5 | – | 13504 | 5435 | inactive
H (GeneID 42445) | 1 | 5.53e5 | 67415 | – | 31668 | 2025 | inactive
CG15877 (GeneID 38304) | 1 | 65303 | 50160 | – | 1905 | 3569 | inactive
SF2 (GeneID 53443) | 1 | 65323 | 54704 | – | 3604 | 2265 | active
CG9981 (GeneID 32609) | 1 | 66820 | 1.85e5 | – | 1664 | 7034 | inactive
CG30269 (GeneID 37600) | 1 | 1.66e5 | 86405 | – | 4219 | 7552 | inactive
Klp59D (GeneID 37674) | 1 | 1.23e5 | 74855 | – | 3175 | 5600 | inactive
l(1)G0004 (GeneID 33033) | 1 | 85383 | 89952 | – | 2624 | 2560 | inactive
ATPsynepsilonL (GeneID 326144) | 1 | 52141 | 77466 | – | 2269 | 2369 | inactive
Adk3 (GeneID 44750) | 1 | 1.33e5 | 97676 | – | 5440 | 3707 | inactive
dbo (GeneID 53556) | 1 | 1.04e5 | – | – | 2816 | 2773 | inactive
CG5860 (GeneID 42095) | 1 | 66214 | 1.17e5 | – | 1121 | 3089 | inactive
CG30467 (GeneID 36719) | 1 | 92564 | 37268 | – | 2364 | 929 | inactive
CG32700 (GeneID 31896) | 1 | 87564 | 2.77e5 | – | 2724 | 10492 | inactive
CG32700 (GeneID 31896) | 2 | 68688 | 1.86e5 | – | 2434 | 7320 | inactive
dpr12 (GeneID 50320) | 1 | 1.24e5 | 2.52e5 | – | 3548 | 10106 | inactive
dpr12 (GeneID 50320) | 2 | 1.19e5 | 67350 | – | 2624 | 6611 | inactive
dpr12 (GeneID 50320) | 3 | 79096 | 70472 | – | 1056 | 5906 | inactive
SLIRP2 (GeneID 41021) | 1 | 1.14e5 | 1.11e5 | – | 4530 | 2860 | inactive
CG31807 (GeneID 318953) | 1 | 1.05e5 | 4.10e5 | – | 2634 | 16237 | inactive
Act88F (GeneID 41885) | 1 | 62374 | 49280 | – | 1964 | 1319 | inactive
CG18004 (GeneID 36154) | 1 | 2.07e5 | 1.13e5 | – | 6008 | 2965 | inactive
Ugt305A1 (GeneID 59217) | 1 | 57510 | 44265 | – | 1897 | 3274 | inactive
